The list shows a part of the results.

The chains behind the UniProt entries cited, without tags or fusion partners. Where a name states a change or a piece, a line headed by the entry shows the natural chain unless it says otherwise.
UniProt Q9BQ52: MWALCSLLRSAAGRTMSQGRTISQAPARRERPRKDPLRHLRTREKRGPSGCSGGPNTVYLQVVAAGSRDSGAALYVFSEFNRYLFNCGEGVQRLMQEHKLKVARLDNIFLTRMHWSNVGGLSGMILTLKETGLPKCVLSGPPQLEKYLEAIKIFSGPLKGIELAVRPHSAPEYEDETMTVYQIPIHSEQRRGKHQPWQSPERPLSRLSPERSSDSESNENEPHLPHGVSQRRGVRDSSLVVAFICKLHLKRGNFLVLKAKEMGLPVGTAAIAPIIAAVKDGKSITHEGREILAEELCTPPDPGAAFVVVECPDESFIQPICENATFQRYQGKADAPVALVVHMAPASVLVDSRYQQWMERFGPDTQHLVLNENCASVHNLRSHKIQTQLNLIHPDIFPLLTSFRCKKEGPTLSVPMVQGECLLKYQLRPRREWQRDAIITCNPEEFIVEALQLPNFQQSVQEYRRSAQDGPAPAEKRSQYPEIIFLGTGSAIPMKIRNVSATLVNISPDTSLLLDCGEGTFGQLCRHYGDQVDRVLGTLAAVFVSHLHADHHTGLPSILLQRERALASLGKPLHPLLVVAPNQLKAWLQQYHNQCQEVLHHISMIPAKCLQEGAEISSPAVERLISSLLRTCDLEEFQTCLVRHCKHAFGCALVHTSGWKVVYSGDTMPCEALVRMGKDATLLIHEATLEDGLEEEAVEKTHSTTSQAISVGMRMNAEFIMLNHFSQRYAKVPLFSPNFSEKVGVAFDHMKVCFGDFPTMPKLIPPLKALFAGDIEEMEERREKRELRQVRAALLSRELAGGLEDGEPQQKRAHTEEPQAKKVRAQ
UniProt P41214: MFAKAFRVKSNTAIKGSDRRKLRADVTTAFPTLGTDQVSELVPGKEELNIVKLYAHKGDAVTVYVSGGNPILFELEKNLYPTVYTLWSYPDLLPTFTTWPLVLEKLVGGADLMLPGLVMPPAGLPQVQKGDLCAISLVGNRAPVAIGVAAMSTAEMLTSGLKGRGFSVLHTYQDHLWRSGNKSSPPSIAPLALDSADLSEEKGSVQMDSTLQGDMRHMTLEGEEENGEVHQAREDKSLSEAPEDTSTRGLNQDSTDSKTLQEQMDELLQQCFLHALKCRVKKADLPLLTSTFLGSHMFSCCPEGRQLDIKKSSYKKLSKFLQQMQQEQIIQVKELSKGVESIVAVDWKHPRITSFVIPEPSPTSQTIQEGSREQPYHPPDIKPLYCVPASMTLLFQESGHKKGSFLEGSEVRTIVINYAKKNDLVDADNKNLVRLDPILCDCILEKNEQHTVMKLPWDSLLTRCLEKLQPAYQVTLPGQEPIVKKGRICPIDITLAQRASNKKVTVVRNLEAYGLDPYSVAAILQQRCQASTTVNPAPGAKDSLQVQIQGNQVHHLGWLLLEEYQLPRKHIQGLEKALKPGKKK
UniProt O95834: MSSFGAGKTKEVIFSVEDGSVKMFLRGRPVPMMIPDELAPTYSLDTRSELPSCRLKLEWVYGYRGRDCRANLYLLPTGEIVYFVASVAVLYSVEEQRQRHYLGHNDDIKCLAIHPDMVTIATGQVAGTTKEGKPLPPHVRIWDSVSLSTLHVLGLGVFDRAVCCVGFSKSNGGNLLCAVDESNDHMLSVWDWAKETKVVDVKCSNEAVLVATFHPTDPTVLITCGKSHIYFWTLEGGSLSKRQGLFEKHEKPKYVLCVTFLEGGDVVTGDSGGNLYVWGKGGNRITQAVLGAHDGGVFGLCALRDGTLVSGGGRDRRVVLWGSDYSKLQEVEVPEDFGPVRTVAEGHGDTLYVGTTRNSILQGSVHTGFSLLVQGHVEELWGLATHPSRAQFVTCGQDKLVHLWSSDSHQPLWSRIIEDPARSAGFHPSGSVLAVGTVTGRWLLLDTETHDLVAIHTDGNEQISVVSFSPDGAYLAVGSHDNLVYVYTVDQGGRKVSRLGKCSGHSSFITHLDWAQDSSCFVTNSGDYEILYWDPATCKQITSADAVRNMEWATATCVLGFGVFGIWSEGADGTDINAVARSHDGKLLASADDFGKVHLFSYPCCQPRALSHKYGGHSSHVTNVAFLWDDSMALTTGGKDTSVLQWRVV
UniProt O43402: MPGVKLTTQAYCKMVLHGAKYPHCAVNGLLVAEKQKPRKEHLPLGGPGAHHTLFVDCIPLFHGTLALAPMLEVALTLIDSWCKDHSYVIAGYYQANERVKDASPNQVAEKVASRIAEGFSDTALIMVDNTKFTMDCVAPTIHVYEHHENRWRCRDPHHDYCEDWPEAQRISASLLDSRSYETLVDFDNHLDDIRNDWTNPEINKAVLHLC
UniProt O15371, whole entry, looked up: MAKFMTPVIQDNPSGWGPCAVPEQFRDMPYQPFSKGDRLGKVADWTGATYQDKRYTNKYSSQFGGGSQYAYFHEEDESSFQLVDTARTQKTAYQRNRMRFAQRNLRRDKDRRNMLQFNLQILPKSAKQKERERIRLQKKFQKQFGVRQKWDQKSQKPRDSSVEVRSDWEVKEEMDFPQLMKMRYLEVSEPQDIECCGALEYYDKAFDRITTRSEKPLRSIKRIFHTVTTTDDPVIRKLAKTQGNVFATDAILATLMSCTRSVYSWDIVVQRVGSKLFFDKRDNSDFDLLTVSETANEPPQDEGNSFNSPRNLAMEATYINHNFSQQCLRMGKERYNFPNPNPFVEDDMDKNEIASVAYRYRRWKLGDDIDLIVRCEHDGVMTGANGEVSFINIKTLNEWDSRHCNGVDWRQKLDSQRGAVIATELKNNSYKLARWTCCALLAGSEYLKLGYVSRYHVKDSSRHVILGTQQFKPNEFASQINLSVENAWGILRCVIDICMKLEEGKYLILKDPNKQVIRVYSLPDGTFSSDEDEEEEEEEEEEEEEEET
UniProt Q6ZTU2, whole entry, looked up: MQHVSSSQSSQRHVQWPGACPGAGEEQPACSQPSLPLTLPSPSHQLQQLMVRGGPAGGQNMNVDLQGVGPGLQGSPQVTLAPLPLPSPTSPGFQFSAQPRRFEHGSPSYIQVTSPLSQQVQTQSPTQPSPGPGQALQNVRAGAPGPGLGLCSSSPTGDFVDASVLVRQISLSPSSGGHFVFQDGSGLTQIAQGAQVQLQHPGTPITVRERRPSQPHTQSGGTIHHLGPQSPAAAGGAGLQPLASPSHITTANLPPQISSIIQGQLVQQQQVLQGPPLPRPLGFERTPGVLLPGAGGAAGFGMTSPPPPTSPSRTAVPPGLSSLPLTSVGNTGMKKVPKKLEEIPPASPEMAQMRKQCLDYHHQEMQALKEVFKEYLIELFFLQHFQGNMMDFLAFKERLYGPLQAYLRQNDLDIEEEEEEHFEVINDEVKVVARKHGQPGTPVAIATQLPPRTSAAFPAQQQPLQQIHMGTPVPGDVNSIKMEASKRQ
UniProt O75356: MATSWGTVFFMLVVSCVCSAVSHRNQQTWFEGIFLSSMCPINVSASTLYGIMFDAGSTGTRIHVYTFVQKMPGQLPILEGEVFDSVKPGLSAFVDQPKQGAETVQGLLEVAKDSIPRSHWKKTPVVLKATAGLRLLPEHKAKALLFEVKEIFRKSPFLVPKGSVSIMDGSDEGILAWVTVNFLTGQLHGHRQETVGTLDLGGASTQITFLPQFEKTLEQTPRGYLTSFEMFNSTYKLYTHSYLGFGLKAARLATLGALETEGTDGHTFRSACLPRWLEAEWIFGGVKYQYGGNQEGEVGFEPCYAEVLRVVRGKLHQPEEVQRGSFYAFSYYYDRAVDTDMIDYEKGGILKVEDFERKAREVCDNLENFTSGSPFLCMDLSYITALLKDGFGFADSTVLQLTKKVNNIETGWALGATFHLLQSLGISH
UniProt Q14241: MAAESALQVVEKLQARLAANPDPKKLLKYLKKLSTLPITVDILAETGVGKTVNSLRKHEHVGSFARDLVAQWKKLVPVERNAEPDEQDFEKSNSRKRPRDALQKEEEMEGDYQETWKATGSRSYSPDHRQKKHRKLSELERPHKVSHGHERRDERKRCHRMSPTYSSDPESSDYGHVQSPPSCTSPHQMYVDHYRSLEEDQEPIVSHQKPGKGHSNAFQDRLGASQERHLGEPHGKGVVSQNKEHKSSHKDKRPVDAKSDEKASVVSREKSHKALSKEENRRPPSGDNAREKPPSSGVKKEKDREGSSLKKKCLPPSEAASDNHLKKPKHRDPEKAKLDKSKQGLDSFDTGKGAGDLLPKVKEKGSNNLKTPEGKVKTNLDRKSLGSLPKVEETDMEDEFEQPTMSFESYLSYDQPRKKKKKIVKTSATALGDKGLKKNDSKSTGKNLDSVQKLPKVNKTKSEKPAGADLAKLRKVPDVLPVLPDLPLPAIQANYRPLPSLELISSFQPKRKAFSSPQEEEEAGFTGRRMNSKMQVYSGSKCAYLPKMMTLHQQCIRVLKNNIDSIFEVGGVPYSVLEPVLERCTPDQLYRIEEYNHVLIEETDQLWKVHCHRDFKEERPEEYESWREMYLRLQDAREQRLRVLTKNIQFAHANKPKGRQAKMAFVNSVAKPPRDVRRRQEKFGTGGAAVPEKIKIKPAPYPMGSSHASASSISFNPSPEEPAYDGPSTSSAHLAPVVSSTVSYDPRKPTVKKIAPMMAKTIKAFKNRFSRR
UniProt Q9Y2J2, whole entry, looked up: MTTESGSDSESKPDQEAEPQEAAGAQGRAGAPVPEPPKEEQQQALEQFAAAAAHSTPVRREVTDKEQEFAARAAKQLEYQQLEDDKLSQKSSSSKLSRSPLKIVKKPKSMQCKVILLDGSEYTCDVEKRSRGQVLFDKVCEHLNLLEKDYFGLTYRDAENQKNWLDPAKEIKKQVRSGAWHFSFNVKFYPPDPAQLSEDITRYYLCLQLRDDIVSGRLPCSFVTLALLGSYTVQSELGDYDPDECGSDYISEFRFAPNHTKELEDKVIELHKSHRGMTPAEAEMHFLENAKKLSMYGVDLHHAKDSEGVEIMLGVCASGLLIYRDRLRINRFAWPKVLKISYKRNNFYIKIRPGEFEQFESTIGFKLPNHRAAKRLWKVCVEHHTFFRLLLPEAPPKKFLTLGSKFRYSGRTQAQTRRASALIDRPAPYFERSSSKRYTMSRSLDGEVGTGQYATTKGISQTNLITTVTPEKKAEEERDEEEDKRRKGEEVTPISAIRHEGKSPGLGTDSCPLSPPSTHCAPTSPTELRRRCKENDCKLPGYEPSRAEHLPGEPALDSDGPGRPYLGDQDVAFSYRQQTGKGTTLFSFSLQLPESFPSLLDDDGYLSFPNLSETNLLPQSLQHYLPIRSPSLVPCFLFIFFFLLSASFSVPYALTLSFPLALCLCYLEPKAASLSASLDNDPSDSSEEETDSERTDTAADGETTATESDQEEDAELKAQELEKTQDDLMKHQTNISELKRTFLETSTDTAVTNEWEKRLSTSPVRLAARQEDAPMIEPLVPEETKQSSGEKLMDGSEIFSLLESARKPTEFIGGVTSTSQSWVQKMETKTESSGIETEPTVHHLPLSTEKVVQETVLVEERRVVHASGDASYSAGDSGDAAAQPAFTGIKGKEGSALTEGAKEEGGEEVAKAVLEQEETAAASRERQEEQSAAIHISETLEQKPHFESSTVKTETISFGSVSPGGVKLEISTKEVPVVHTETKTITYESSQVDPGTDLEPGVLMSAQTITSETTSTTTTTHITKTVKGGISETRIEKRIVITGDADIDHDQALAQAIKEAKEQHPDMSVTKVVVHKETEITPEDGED
UniProt P38919, whole entry, looked up: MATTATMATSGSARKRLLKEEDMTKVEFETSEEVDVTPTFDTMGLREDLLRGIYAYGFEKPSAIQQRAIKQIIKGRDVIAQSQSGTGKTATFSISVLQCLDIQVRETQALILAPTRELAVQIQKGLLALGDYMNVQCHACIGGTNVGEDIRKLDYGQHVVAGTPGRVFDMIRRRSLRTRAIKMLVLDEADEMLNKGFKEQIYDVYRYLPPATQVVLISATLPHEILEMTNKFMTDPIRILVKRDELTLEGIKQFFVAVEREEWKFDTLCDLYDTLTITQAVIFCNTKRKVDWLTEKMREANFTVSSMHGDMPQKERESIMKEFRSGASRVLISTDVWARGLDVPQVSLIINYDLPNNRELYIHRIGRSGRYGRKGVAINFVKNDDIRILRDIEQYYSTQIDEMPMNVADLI
UniProt P34913, whole entry, looked up: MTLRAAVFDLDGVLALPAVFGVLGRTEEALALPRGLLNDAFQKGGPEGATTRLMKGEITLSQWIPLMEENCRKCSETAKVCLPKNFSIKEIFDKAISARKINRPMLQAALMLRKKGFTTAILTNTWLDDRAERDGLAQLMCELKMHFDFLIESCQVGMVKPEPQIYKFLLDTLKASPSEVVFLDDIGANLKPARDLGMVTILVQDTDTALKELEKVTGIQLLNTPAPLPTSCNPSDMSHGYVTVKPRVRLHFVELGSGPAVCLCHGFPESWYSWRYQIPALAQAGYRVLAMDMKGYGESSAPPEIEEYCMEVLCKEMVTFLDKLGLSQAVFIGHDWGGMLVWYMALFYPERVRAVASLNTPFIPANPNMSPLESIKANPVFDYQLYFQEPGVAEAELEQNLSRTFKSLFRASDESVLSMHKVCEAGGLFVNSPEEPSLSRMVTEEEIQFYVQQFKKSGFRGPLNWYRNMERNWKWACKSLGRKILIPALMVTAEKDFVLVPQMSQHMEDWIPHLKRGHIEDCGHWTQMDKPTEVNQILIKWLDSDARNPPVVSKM

This passage reports log2 fold change results from the supplement of paper PMC10849652.

Compound in the assay: CCCS(=O)(=O)Nc1ccc(F)c(C(=O)c2c[nH]c3ncc(-c4ccc(Cl)cc4)cc23)c1F [vemurafenib]
In words: log2 fold change, soluble protein after heating vs DMSO (PISA); higher = thermal stabilisation; K562 lysate, 10 uM; active = over 0.2 and 3.5 SD of the protein, either way, in both replicates (recomputed). In short, it runs like this:
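Following dounce homogenisation of K562 pellets in PBS pH 7.4 with 1 mM MgCl2, crude extract at 1 mg/mL protein was incubated for 30 min with 10 μM compound. Aliquots were then heated for 3 min over 48°C-58°C and pooled, NP-40 was added to 0.5% at 4°C, and soluble protein was recovered as the supernatant at 21,000xg for 90 min. Channel-sum-equalised TMTpro 16plex LC-MS/MS quantified this protein. Each value, from duplicates, is a log-two fold change in thermal stability relative to solvent controls.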
Consider EPB41L1 (UniProt Q9H4G0), for which the log2 fold change was inactive: 0.047. Take ELAC2 (UniProt Q9BQ52): the log2 fold change was inactive: 0.018. For the target EIF4B (UniProt P23588), the log2 fold change is inactive: 0.028. In the case of EIF3F (UniProt O00303), the log2 fold change is inactive: -0.002. Regarding EIF2D (UniProt P41214), the log2 fold change was inactive: 0.041. For EMC2 (UniProt Q15006), the log2 fold change is inactive: -0.011. Consider EP300 (UniProt Q09472), for which the log2 fold change is inactive: -0.018. Take EIF5B (UniProt O60841): the log2 fold change was inactive: 0.001. To ERCC2 (UniProt P18074) belongs inactive: -0.01; to EMC10 (UniProt Q5UCC4), inactive: 0.059.

As to EML2 isoform 3 (UniProt O95834), the log2 fold change was inactive: -0.063. On to EMC8 (UniProt O43402), for which the log2 fold change was inactive: 0.054.

As to EIF3D (UniProt O15371), the log2 fold change was inactive: 0.009.

For the target ENGASE (UniProt Q8NFI3), the log2 fold change is inactive: 0.034.

Take EPS15L1 isoform 2 (UniProt Q9UBC2): the log2 fold change is inactive: 0.003.

In the case of EP400P1 isoform 6 (UniProt Q6ZTU2), the log2 fold change was inactive: 0.146.

With ENTPD5 (UniProt O75356), the log2 fold change was inactive: -0.112. In the case of ELP6 (UniProt Q0PNE2), the log2 fold change was inactive: 0.038. To EIF2B5 (UniProt Q13144) belongs inactive: -0.007; to EIF3G (UniProt O75821), inactive: 0.019; to ELOC (UniProt Q15369), inactive: 0.022. For the target EML3 (UniProt Q32P44), the log2 fold change was inactive: -0.068.

In the case of ELOA (UniProt Q14241), the log2 fold change is inactive: -0.004. As to EIF2AK4 (UniProt Q9P2K8), the log2 fold change was inactive: 0.018.

EMC3 (UniProt Q9P0I2): the log2 fold change was inactive: 0.009. With EMP3 (UniProt P54852), the log2 fold change was inactive: 0.022. As for EMC4 (UniProt Q5J8M3), the log2 fold change was inactive: 0.088. Take EPB41L3 (UniProt Q9Y2J2): the log2 fold change is inactive: -0.093. With EIF4EBP2 (UniProt Q13542), the log2 fold change is inactive: -0.036.

With ERCC6L (UniProt Q2NKX8), the log2 fold change was inactive: 0.003. Consider EIF4E isoform 2 (UniProt P06730), for which the log2 fold change is inactive: -0.02. Consider EMC6 (UniProt Q9BV81), for which the log2 fold change is inactive: 0.054. Take EIF4A3 (UniProt P38919): the log2 fold change was inactive: 0.01. In the case of EIF3E (UniProt P60228), the log2 fold change is inactive: -0.005. As for EPHX2 (UniProt P34913), the log2 fold change is inactive: -0.026.
